The assay addresses CoaB coat protein of Pf4 bacteriophage (Pf4 bacteriophage). Description: Western blot.

In US20240350634A1 one finds binding data, which are given here for two molecules.

No constants are given. Whether binding was seen depends on the method and setting. A result given as binding can be weak or reduced; the word gives no strength.

B1: IgG Ab #2 (2D4) (antibody, V domains shown)
VH: EVQLQQSGTVLARPGASVKMSCKASGYSFTSYWMHWVKQRPGQGLEWIGAIYPGNSDTSYNQKFKGKAKLTAVTSASTAYMELSCLTNEDSAVFYCTRSQFYSGSSEDAMDYWGQGTSVTVSS
VL: DVLMTQTPLSLPVSLGDQASISCRSSQSIVHSNGNTYLEWYLQKPGQSPKLLIYKVSNRFSGVPDRFSGSGSGTDFTLKISRVEAEDLGVYFCFQGSHVPWTFGGGTKLEIK
Take B1: the binding entry is reported as “binds”.

B2: IgG Ab #3 (3D6) (antibody, V domains shown)
VH: QIQLVQSGPELKKPGETVKISCKASGYTFTNYGMNWLKQAPGKGLKWMGWINTNTGEPTYAEEFKGRFAFSLETSASTAYLQINNLKNEDTATYFCARKDYRYWFAYWGQGTLVTVSA
VL: DVLMTQTPLSLPVSLGDQASISCRSSQSIVHSNGNTYLEWYLQKPGQSPKLLIYKVSNRFSGVPDRFSGSGSGTDFTLKISRVEAEDLGVYYCFQGSHVPFTFGSGTKLEIK
In the case of B2, the binding result is “binds”.
